Experimental data from PubChem BioAssay AID2685 (National Center for Advancing Translational Sciences (NCATS), 2010).
In all, about 320,000 compounds went through this assay and about 2,100 (0.66%) were called active. Inconclusive means that the source gave no clear call. Such entries were picked first, then a sample of the others. Calls follow the shape of the dose curve; as a rule, active = well fitted inhibition curve with a large enough effect in the signal ratio, with a control signal flat (not every such curve was filed as active); inconclusive = small, poorly fitted or top-dose-only effect, or effect the other way, or a change in a side signal; inactive = flat fitted curve, though single readings scatter; the % refers to the signal ratio. Potencies of inconclusive entries are doubtful fits and often do not repeat. Where a SMILES comes first, the peptide text is derived from it. [ ]: non-standard residue; d: D form. The star is where a group is joined. ξ: configuration not given here. Tos = Cc1ccc(S(=O)(=O)*)cc1; Inp = O=C(O)C1CCNCC1; ξP = O=C(O)C1CCCN1

Test: qHTS Assay for Lipid Storage Modulators in Drosophila S3 Cells
Conditions: BODIPY lipid droplet fluorescence, 18-24 h, cells fed with added oleic acid; lipid storage change, negative = inhibition: at 46.1 µM (top of the series) unless noted
Outline: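 Drosophila S3 cells got compounds at several concentrations plus oleic acid (400 uM solution). Laser-scanning cytometry with 488 nm excitation read lipid droplets at 500-530 nm and cells at 575-640 nm. Percent activity was relative to 20 uM Triacsin C.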
% is scaled to controls: 0 for no effect and ±100 for the full control effect; potency is read from the fitted curve at half-maximal effect.

Structure (SMILES) | lipid storage change, negative = inhibition | Potency
Cc1ccc(C(=O)NCCc2nnc3ccc(SCC(=O)Nc4ccccc4C)nn23)cc1 | inconclusive: 16% | –
CC1CCN(C(=S)NC(=O)C2CCCCC2)CC1 | inconclusive: 25.2% | –
CCOC(=O)C1=C(N)OC2=C(C(=O)CCC2)C1c1ccccc1OC (stereo not given) | inconclusive: -13.6% | –
O=c1cc[nH]c2ccc([N+](=O)[O-])cc12 | inconclusive: -37.7% | –
Cc1noc(C)c1COc1ccc(C(=O)OCc2nnc(-c3ccc(Cl)cc3)o2)cc1 | inconclusive: 52.9% | –
CC(=O)Nc1ccc(C(=O)OCc2ccccc2Br)cc1 | inconclusive: 1.12% | –
Cc1nc(NCCc2ccccc2)c2oc3ccccc3c2n1 | – | inconclusive: 11.6 µM [activator, single point]
Cc1cccc(NC(=O)N(C)Cc2cccs2)c1 | inconclusive: -6.4% | –
CCOc1ccc(N(CC(=O)NCC2CCCO2)S(=O)(=O)c2ccc(Cl)cc2)cc1 (stereo not given) | inconclusive: 51.2% | –
Cn1c(SC2CCCCC2=O)nnc1-c1ccncc1 (stereo not given) | inconclusive: 143% | –
N/C(=N\OC(=O)c1ccc2ccccc2c1)c1cccc([N+](=O)[O-])c1 | inconclusive: 27.3% | –
COc1ccc(C(=O)CC(=O)C(=O)Nc2cc(C)ccc2C)cc1 | inconclusive: 9.06% | –
COc1ccc(CNC(=O)C(C)NCc2ccc(S(N)(=O)=O)cc2)cc1 (stereo not given) | inconclusive: 202% | –
Nc1ccc(C(=O)c2cccs2)cc1 | inconclusive: 22.5% | –
CSc1ccccc1NC(=O)Cc1ccccc1[N+](=O)[O-] | inconclusive: -23.1% | –
Cc1onc(-c2c(Cl)cccc2Cl)c1NC(=O)NNc1ccccn1 | – | inconclusive: 29.1 µM [cytotoxic, single point]
CC(C)OCCCNC(=O)c1c(N)n(/N=C/c2ccccn2)c2nc3ccccc3nc12 | inconclusive: -4.99% | –
CN(C(=O)COC(=O)c1ccccc1C(=O)N1CCN(c2ccccc2)CC1)c1ccccc1 | inconclusive: -21.4% | –
CCN(Cc1ccccc1)C(=O)C1CCC(CNc2c(N3CCOCC3)c(=O)c2=O)CC1 (stereo not given) | inconclusive: -14.4% | –
O/N=C/c1ccn(-c2ccc(Br)cc2)c1 | inconclusive: -3.59% | –
C/C=C/C=C/[C@H]1Cc2cc(O)cc(O)c2O1 | inconclusive: -10.3% | –
Cc1cc2oc(=O)cc(CN3CCN(Cc4ccccc4)CC3)c2cc1C | – | inconclusive: 0.58 µM [falling, single point]
Cc1cccc(N=C2CSC(=O)N2)c1 | inconclusive: 14.7% | –
O=C(OCc1nnc(-c2cccs2)o1)c1cccnc1Cl | – | inconclusive: 23.1 µM [activator, single point]
Cn1c(NCC(O)CO)nc2c1c(=O)n(Cc1ccc(Cl)c(Cl)c1)c(=O)n2C (stereo not given) | inconclusive: -25% | –

Structure (SMILES) | lipid storage change, negative = inhibition | Potency
Cc1cc(N2CCN(c3nnnn3-c3ccccc3)CC2)n2ncnc2n1 | – | inconclusive: 0.326 µM [falling, partial curve, poor fit]
S=C1NC[C@H](CC2CCCCC2)N1CCCCC1CCCCC1 | inconclusive: 19% | –
O=C1C2CCCN2C(=O)N1CCCN1CCN(c2cccc(Cl)c2)CC1 (stereo not given) | inconclusive: 0.59% | –
CCOC(=O)/C=c1\s/c(=C\c2ccc(-c3ccccc3)cc2)c(=O)n1CC(=O)NCc1ccc2c(c1)OCO2 | – | inconclusive: 29.1 µM [activator, single point]
COc1cc(-c2nn3c(C4CCCCC4)nnc3s2)cc(OC)c1OC | – | inconclusive: 1.3 µM [falling, full curve, poor fit]
COc1cccc(NC(=O)CSc2nnc(NC(=O)c3ccco3)s2)c1 | – | inconclusive: 16.4 µM [activator, single point]
CNC(=S)N(CCc1c(C)[nH]c2ccc(OC)cc12)Cc1ccco1 | inconclusive: -16.8% | –
O=C(CCCl)N(Cc1nc2ccccc2c(=O)[nH]1)Cc1cccs1 | inconclusive: 13.6% | –
CCOc1ccc(NC(=O)c2cc(S(=O)(=O)N3CCOCC3)cs2)cc1 | inactive: -20% | –
C=Cn1cc[n+](CC(=O)c2ccc(OC)c(OC)c2)c1 | – | inconclusive: 0.103 µM [falling, full curve, poor fit]
CCCCn1c(SCC(=O)Nc2nnc(C)s2)nnc1-c1ccoc1C | inconclusive: 8.61% | –
CCCCOC(=O)CSc1nnc(N)s1 | inconclusive: -3.8% | –
Cc1cc(C)c(NC(=O)NC(=O)C(Cl)(Cl)Cl)c(C)c1 | – | inconclusive: 29.1 µM [activator, single point]
Cc1nn(Cc2ccc(F)cc2)c2sc(C(=O)Nc3ccccc3N3CCOCC3)cc12 | inconclusive: -2.35% | –
Cc1ccc(S(=O)(=O)N2CCC(C(=O)N3CCCC3C(=O)N[C@@H](CC(C)C)C(=O)NCC(N)=O)CC2)cc1 (stereo partly drawn) ({Tos-Inp}-[ξP]-Leu-Gly-NH2) | inconclusive: 1.53% | –
COn1c(=O)c(=O)n(O)c2ccccc21 | inconclusive: 2.85% | –
Cc1[nH]c2ccccc2c1C(=O)C(=O)NCCCn1ccnc1 | – | inconclusive: 0.651 µM [activator, full curve]
COc1ccc(/C=N/OC(=O)Nc2ccccc2)cc1[N+](=O)[O-] | – | inconclusive: 5.17 µM [activator, partial curve]
Cn1ncc(C#N)c1/N=C/N(Cc1ccccc1)Cc1ccccc1 | – | inconclusive: 7.31 µM [activator, partial curve]
O=c1[nH]n(CCO)c(=O)c2cccnc12 | – | inconclusive: 0.0046 µM [falling, full curve, poor fit]
O=C(Nc1ccccc1-c1ccccc1)NC1CC2CCCC(C1)N2Cc1ccc(F)cc1 (stereo not given) | inconclusive: 22.2% | –
Nc1cc(=O)[nH]c(SCC(=O)Nc2ccc(Oc3ccccc3)cc2)n1 | – | inconclusive: 5.17 µM [activator, single point]
CN1CCN(S(=O)(=O)c2ccc(Cl)s2)CC1 | inconclusive: 76.1% | –
Cc1ccc(C(=O)NN2C(=O)/C(=C/c3cccn3C)SC2=S)cc1 | inconclusive: 8.59% | –
COc1ccc(C(C)=O)cc1COC(=O)C1CC(=O)N(Cc2ccccc2)C1 (stereo not given) | inconclusive: 20.9% | –

Of the compounds above, two contain fluorine.
Structure (SMILES) | lipid storage change, negative = inhibition | Potency
Cc1nn(Cc2ccc(F)cc2)c2sc(C(=O)Nc3ccccc3N3CCOCC3)cc12 | inconclusive: -2.35% | –
O=C(Nc1ccccc1-c1ccccc1)NC1CC2CCCC(C1)N2Cc1ccc(F)cc1 (stereo not given) | inconclusive: 22.2% | –
